Earlier results on one compound are cited in patent US9211510B2, “Method for producing nanoparticles by forced ultrathin film rotary processing” (M. Technique Co., Ltd., priority 2007, dated 2015).

For this data set the following is noted: by heating to a temperature of 70° C. or more.

For `Nc1nc2c(ncn2COCCO)c(=O)[nH]1` [aciclovir], the solubility in water result is on record as “about 8 w/v %”.
